In publication PMC7338052:
These are yes or no findings as the source states them, for the method shown. Some entries that bind do so weakly or less than the wild type.

The chains behind the UniProt entries cited, without tags or fusion partners.
UniProt P28482: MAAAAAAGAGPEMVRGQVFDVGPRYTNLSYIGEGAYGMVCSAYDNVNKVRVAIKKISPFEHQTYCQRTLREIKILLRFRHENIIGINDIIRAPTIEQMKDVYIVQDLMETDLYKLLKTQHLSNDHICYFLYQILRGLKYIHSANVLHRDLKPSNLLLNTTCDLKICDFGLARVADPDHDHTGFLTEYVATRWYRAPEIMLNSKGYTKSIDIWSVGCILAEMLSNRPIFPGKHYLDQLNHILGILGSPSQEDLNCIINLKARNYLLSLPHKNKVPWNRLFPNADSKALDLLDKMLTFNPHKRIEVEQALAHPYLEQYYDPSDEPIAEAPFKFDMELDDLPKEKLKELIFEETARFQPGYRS
UniProt O96017: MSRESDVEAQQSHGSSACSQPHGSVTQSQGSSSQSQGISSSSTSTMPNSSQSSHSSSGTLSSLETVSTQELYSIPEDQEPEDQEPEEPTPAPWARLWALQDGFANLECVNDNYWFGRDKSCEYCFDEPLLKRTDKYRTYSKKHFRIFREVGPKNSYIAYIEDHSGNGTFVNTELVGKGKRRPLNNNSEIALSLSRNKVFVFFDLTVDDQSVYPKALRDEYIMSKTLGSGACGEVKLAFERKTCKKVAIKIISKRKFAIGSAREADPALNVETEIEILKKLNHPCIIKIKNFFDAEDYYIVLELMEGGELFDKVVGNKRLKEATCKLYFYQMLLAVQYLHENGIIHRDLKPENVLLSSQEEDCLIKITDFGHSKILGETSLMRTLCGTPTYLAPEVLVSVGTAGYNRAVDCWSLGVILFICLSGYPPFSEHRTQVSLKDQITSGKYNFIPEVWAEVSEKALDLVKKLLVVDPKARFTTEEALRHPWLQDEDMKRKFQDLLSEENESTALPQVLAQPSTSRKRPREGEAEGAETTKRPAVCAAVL

Biological target: FLAG-ERK2 (UniProt P28482)
Assay: far-Western, overlay or dot blot; targets immunopurified, resolved by SDS-PAGE, transferred to PVDF, denatured and renatured in guanidine-HCl buffers; probe in 3% BSA in TBS/Tween 20 overnight at 4°C; fixed with 0.5% paraformaldehyde; bound probe detected by its tag; both purified

binding: binds
Substance: V5-wtCHK2 (from UniProt O96017 1-543) (enzyme)
